Results deposited as PubChem BioAssay AID504791 (Drosophila RNAi Screening Center, 2011)

Assay: 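Genes whose knock-down strengthens or weakens small-RNA reporter silencing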 (primary screen)
System: Drosophila S2-derived reporter cells
Reagents: long dsRNA against Drosophila genes, about 150-250 ng dsRNA per well (siRNA assay); about 80-120 ng (miRNA assay)
Duration: about 5 days (siRNA assay); about 4 days (miRNA assay)
Challenge: copper sulfate induction of reporters: 25 µM (siRNA assay); 200 mM stated (miRNA assay), 1-2 days before reading
Read-out: 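Per-well ratio of Renilla over firefly light, expressed relative to that plate's average ratio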
Units: stable assay Renilla, run 1 in luminescence; stable assay firefly, run 1 in luminescence
Rule for the call: 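First-pass picks had plate-scaled ratios over 1.5 for the siRNA assay, over 1.6 for the miRNA assay, or under 0.6; two distinct dsRNAs had to score alike on retest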
In all, the deposit lists about 23,000 reagents; this is an unselected part of those that have a named target and a result. In the full data, 199 (0.86%) got an active call. 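Plate-scaled ratios behind the calls are not deposited; printed light signals are raw; many rows marked increased or decreased are still called inactive.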 A plus sign joins genes that one reagent is predicted to hit. Not given: the direction of the score.

CG43345 [DRSC03164]: stable assay Renilla, run 1 = 7755; stable assay firefly, run 1 = 9.35e5; Outcome = inactive
CG33143 [DRSC04151]: stable assay Renilla, run 1 = 5475; stable assay firefly, run 1 = 3.42e5; Outcome = inactive
CG33143 [DRSC04454]: stable assay Renilla, run 1 = 6286; stable assay firefly, run 1 = 3.07e5; Outcome = inactive
wake [DRSC16148]: stable assay Renilla, run 1 = 7194; stable assay firefly, run 1 = 2.81e5; Outcome = inactive
wake [DRSC16149]: stable assay Renilla, run 1 = 6224; stable assay firefly, run 1 = 3.27e5; Outcome = inactive
CG15043 [DRSC19619]: stable assay Renilla, run 1 = 6511; stable assay firefly, run 1 = 5.14e5; Outcome = inactive
Nemp [DRSC20206]: stable assay Renilla, run 1 = 7954; stable assay firefly, run 1 = 5.29e5; Outcome = inactive
CarT [DRSC03196]: stable assay Renilla, run 1 = 9646; stable assay firefly, run 1 = 5.34e5; Outcome = inactive
scpr-A + scpr-C + scpr-B [DRSC15715]: stable assay Renilla, run 1 = 6538; stable assay firefly, run 1 = 3.15e5; Outcome = inactive
Cp18 [DRSC11120]: stable assay Renilla, run 1 = 5494; stable assay firefly, run 1 = 3.55e5; Outcome = inactive
Bulli [DRSC10974]: stable assay Renilla, run 1 = 5618; stable assay firefly, run 1 = 3.28e5; Outcome = inactive
Vps26 [DRSC18555]: stable assay Renilla, run 1 = 7480; stable assay firefly, run 1 = 3.25e5; Outcome = inactive
CR14798 [DRSC17956]: stable assay Renilla, run 1 = 5718; stable assay firefly, run 1 = 4.41e5; Outcome = inactive
Tace [DRSC16340]: stable assay Renilla, run 1 = 7918; stable assay firefly, run 1 = 5.69e5; Outcome = inactive
CG8230 [DRSC05931]: stable assay Renilla, run 1 = 5710; stable assay firefly, run 1 = 2.96e5; Outcome = inactive
E2f1 [DRSC16655]: stable siRNA reporter change = reporter ratio lowered past the hit cutoff; stable assay Renilla, run 1 = 5588; stable assay firefly, run 1 = 4.70e5; Outcome = inactive
ste24a [DRSC07314]: stable siRNA reporter change = reporter ratio lowered past the hit cutoff; stable assay Renilla, run 1 = 5511; stable assay firefly, run 1 = 3.83e5; Outcome = inactive
CG2909 [DRSC18241]: stable assay Renilla, run 1 = 6055; stable assay firefly, run 1 = 5.60e5; Outcome = inactive
TTLL6B [DRSC15932]: stable assay Renilla, run 1 = 5696; stable assay firefly, run 1 = 3.15e5; Outcome = inactive
pkaap [DRSC01925]: stable assay Renilla, run 1 = 6812; stable assay firefly, run 1 = 3.91e5; Outcome = inactive
Snrk [DRSC07192]: stable assay Renilla, run 1 = 7663; stable assay firefly, run 1 = 4.28e5; Outcome = inactive
Snrk [DRSC23332]: stable assay Renilla, run 1 = 4667; stable assay firefly, run 1 = 2.87e5; Outcome = inactive
Ugt37C1 [DRSC07416]: stable assay Renilla, run 1 = 7106; stable assay firefly, run 1 = 3.83e5; Outcome = inactive
janB [DRSC16973]: stable assay Renilla, run 1 = 5987; stable assay firefly, run 1 = 4.79e5; Outcome = inactive
glec [DRSC16958]: stable assay Renilla, run 1 = 8432; stable assay firefly, run 1 = 3.79e5; Outcome = inactive
CG15553 [DRSC15091]: stable assay Renilla, run 1 = 6948; stable assay firefly, run 1 = 5.60e5; Outcome = inactive
CG2246 [DRSC15433]: stable assay Renilla, run 1 = 4811; stable assay firefly, run 1 = 3.35e5; Outcome = inactive
ppk10 [DRSC01123]: stable assay Renilla, run 1 = 6016; stable assay firefly, run 1 = 5.79e5; Outcome = inactive
CG15571 [DRSC18059]: stable assay Renilla, run 1 = 4867; stable assay firefly, run 1 = 2.61e5; Outcome = inactive
CG1824 [DRSC19796]: stable assay Renilla, run 1 = 4504; stable assay firefly, run 1 = 4.28e5; Outcome = inactive
PIG-Q [DRSC19138]: stable assay Renilla, run 1 = 5303; stable assay firefly, run 1 = 3.70e5; Outcome = inactive
bw [DRSC04005]: stable assay Renilla, run 1 = 4316; stable assay firefly, run 1 = 3.52e5; Outcome = inactive
bw [DRSC04677]: stable assay Renilla, run 1 = 1.87e5; stable assay firefly, run 1 = 2.68e5; Outcome = inactive
CG11307 [DRSC11648]: stable assay Renilla, run 1 = 3359; stable assay firefly, run 1 = 3.99e5; Outcome = inactive
Got2 [DRSC00643]: stable assay Renilla, run 1 = 47959; stable assay firefly, run 1 = 8.35e5; Outcome = inactive

Copied from the listing (2 entries):
CG2909 [DRSC18241]: stable assay Renilla, run 1 = 6055; stable assay firefly, run 1 = 5.60e5; Outcome = inactive
TTLL6B [DRSC15932]: stable assay Renilla, run 1 = 5696; stable assay firefly, run 1 = 3.15e5; Outcome = inactive
